Test results reported in PMC4718804 (eLife, 2015).

Tested on: CHO-7 cells
Format: cell-based, hamster

SMILES | [14C]triglyceride content [nmol/hr/ mg protein]
CCC(CC)CCOC1CCC2(C)C(=CCC3C2CCC2(C)C3CCC2N(C)C)C1 (centres unmarked) [compound A] | 116
C#CCOc1ccc(C(=O)c2ccc(C(=O)OCCN(CC)CCOC3CCC4(C)C(=CCC5C6CCC(=O)C6(C)CCC54)C3)cc2)cc1 (centres unmarked) [U-X] | 106
